Assay results as given in the supplement of paper PMC12819154, “High-throughput peptide-centric local stability assay extends protein–ligand identification to membrane proteins, tissues and bacteria” (Nature Structural & Molecular Biology, 2025).
The other results are listed elsewhere or left out. Most values lie at the level of the controls, where differences are scatter.

The chains behind the UniProt entries cited, without tags or fusion partners. Where a name states a change or a piece, a line headed by the entry shows the natural chain unless it says otherwise.
UniProt G3X8U3: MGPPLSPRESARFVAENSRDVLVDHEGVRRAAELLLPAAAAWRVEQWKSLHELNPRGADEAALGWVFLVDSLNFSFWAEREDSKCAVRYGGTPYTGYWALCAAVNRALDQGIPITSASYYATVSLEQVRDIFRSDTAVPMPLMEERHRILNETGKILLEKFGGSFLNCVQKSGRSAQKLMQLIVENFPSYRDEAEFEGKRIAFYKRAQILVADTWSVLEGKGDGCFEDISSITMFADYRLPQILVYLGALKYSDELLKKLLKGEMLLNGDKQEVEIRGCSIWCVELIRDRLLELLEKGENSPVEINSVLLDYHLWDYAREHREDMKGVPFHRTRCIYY
UniProt C0HKD8: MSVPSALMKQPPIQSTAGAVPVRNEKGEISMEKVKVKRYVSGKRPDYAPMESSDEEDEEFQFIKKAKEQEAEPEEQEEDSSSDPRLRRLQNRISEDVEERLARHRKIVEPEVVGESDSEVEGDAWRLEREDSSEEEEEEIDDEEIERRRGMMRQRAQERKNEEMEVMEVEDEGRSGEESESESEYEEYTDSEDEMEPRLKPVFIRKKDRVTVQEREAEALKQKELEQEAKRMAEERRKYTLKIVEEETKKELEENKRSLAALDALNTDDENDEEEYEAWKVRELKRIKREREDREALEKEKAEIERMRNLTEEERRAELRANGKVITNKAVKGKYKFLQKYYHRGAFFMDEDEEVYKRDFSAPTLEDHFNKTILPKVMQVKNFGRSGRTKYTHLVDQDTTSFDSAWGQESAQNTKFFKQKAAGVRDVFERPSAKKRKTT
UniProt O35464: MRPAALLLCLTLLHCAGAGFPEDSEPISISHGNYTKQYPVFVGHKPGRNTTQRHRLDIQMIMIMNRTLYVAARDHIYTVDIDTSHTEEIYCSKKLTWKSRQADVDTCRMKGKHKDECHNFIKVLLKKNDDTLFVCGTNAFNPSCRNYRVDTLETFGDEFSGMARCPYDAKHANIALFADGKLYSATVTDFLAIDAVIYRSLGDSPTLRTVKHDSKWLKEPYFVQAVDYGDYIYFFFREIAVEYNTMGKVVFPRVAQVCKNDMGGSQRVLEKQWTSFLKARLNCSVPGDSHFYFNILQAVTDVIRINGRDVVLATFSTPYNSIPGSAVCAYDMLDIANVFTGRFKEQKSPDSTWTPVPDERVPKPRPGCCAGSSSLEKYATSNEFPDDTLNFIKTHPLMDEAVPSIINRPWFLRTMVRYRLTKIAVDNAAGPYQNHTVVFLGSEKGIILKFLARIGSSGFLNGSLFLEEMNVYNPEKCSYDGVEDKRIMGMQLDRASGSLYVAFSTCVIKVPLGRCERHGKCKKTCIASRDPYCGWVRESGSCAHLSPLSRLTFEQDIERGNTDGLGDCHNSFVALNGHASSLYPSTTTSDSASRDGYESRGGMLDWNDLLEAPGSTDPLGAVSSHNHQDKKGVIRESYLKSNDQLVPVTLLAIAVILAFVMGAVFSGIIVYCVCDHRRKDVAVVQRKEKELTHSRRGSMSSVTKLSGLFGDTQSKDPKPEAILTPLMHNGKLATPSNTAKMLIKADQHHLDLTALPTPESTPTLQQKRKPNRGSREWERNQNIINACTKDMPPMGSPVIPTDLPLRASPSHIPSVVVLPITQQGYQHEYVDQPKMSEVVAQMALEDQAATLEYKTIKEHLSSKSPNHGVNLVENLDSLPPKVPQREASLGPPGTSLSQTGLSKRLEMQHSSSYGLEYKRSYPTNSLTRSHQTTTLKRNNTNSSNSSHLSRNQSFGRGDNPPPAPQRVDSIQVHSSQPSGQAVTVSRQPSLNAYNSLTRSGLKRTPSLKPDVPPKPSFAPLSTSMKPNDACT
UniProt D3YZU1: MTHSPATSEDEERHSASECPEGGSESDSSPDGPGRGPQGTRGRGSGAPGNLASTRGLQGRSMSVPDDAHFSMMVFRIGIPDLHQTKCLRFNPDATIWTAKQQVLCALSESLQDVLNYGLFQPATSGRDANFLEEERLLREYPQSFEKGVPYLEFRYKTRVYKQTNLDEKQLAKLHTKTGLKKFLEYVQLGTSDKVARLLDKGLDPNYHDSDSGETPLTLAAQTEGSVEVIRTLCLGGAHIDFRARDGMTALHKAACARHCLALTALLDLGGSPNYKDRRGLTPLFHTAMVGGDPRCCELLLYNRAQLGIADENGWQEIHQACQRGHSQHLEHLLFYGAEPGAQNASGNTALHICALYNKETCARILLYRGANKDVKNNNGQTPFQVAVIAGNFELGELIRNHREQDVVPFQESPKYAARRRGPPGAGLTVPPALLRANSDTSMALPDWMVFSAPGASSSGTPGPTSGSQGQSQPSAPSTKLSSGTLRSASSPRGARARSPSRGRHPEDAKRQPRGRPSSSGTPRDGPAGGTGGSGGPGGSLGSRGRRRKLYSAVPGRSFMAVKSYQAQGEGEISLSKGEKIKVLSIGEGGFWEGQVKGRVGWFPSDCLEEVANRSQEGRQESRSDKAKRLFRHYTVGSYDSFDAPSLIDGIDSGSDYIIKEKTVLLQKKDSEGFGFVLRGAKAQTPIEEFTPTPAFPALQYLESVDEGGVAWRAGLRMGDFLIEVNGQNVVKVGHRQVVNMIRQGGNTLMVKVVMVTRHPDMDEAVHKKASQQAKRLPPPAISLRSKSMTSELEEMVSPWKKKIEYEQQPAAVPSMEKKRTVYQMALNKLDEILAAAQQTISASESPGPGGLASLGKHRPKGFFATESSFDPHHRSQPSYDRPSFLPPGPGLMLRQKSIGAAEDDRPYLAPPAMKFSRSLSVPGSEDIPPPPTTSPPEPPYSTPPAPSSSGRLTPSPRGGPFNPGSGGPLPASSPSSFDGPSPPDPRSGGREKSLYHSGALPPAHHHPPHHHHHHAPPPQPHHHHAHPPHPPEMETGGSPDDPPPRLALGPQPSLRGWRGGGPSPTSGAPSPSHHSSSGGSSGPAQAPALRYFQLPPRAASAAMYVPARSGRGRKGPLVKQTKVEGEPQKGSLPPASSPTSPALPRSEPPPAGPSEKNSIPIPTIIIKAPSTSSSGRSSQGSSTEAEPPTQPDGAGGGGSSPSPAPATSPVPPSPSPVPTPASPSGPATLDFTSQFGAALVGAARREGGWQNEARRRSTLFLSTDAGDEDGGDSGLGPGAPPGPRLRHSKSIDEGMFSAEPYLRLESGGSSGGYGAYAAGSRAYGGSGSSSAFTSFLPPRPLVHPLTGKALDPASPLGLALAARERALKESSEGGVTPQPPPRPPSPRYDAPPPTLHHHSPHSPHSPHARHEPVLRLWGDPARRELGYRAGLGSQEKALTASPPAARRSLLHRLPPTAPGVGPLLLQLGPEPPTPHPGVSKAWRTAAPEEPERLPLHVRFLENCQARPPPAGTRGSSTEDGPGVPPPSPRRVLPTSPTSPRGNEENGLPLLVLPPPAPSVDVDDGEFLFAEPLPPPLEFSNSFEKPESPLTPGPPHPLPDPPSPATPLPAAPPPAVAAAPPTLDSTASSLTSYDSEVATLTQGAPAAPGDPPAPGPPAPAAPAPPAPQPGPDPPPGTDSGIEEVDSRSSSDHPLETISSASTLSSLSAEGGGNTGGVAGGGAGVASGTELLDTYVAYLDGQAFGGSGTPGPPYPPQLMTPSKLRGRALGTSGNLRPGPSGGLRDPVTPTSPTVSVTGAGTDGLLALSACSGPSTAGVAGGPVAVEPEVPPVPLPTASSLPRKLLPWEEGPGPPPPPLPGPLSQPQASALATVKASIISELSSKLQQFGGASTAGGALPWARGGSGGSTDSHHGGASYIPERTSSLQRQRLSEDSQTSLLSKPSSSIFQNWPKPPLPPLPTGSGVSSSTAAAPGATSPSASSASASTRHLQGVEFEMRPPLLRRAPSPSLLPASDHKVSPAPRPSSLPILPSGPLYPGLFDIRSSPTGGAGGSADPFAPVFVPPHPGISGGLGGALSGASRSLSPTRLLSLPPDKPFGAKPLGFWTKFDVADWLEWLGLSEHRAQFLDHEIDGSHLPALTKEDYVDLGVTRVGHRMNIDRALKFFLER
UniProt O35453: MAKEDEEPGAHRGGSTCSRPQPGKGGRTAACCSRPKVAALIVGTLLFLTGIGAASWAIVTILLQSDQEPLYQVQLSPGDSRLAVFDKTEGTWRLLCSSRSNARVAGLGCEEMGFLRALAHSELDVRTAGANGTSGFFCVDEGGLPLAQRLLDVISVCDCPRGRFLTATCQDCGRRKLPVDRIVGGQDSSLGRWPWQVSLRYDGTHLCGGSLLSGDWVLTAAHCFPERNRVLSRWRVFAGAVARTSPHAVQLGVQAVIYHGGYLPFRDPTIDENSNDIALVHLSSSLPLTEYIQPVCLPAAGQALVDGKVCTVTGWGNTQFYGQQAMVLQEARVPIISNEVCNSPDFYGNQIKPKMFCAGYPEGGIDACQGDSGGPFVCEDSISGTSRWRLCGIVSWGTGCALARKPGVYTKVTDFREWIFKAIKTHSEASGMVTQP
UniProt E9Q634: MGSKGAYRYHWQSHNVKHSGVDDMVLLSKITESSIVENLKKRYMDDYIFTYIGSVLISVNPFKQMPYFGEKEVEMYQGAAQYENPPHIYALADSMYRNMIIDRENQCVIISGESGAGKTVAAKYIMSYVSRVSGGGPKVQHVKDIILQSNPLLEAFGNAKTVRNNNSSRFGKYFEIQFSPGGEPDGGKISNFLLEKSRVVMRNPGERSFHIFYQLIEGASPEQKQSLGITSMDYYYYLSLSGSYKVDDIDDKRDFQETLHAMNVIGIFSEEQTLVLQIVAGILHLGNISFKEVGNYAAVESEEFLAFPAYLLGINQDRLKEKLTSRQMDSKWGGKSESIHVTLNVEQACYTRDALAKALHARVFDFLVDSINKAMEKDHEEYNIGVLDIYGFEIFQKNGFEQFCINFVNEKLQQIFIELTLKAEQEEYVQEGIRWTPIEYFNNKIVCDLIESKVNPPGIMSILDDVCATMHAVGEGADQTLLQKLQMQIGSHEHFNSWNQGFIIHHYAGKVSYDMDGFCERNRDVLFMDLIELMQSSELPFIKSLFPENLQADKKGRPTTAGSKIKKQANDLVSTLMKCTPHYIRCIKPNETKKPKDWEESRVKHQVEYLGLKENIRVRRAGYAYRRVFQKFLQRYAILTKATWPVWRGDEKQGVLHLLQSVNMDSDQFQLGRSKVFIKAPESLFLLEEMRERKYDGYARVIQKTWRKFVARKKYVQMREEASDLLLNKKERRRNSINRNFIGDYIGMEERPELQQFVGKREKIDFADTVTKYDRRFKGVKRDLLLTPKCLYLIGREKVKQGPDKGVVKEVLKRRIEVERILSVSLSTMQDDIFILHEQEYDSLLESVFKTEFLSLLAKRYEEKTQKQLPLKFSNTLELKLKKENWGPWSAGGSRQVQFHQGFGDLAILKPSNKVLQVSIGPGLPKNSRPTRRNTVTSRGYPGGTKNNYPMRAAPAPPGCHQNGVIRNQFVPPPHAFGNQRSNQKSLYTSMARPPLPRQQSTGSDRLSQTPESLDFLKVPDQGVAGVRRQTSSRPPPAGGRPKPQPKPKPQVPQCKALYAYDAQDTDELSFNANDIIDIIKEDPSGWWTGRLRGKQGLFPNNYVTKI
UniProt O08573: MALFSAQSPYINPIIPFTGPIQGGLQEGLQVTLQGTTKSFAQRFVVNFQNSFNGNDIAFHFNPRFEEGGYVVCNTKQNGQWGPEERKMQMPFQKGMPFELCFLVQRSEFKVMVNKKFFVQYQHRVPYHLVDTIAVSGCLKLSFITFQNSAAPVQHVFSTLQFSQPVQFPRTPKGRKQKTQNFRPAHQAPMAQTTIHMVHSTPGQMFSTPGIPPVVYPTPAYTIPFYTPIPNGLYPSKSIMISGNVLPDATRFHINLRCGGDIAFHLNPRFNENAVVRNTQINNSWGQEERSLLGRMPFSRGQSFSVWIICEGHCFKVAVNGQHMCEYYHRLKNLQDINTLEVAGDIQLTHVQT
UniProt E9Q6D6: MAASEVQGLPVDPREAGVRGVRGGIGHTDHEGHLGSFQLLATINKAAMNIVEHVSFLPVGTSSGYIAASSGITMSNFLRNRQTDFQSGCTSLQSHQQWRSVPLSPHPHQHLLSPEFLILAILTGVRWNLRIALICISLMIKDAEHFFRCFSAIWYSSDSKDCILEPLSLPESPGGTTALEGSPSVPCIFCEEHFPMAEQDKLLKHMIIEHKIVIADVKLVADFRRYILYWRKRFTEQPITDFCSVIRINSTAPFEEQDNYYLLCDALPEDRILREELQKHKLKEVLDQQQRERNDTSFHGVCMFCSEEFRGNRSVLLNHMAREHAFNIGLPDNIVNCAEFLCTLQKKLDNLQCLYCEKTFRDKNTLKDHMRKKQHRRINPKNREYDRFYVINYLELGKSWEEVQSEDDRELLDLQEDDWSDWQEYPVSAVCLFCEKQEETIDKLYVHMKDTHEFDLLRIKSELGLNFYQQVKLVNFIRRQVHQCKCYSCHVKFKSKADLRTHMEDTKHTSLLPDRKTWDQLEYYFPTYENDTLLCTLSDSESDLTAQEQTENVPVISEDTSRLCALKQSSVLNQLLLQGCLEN
UniProt O08997: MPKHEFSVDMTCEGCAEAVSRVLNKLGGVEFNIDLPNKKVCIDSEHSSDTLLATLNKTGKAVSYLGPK

Compound: CN[C@@H]1C[C@H]2O[C@@](C)([C@@H]1OC)n1c3ccccc3c3c4c(c5c6ccccc6n2c5c31)C(=O)NC4 [staurosporine]
Experiment: log2 fold change of tryptic peptide abundance, ligand vs vehicle (limited proteolysis) (log2 ratio); higher = more trypsin-susceptible (destabilized)
Conditions: ligand concentration: 20 uM; sample: mouse liver crude lysate; replicate design: treated separately

Target	log2 fold change
UniProt O35153 (peptide sequence: LKSLALDIDRDTEDQNR, peptide start residue: 35)	-0.252
UniProt B9EJ80 (peptide sequence: DLPSESSAPTK, peptide start residue: 653)	0.294
UniProt G3X8U3 (peptide sequence: SLHELNPR, peptide start residue: 49)	0.384
UniProt E9Q6P5 (peptide sequence: SECQWER, peptide start residue: 19)	-0.402
UniProt E9PV24 (peptide sequence: NNKDSNSLTR, peptide start residue: 99)	0.214
UniProt C0HKD8 (peptide sequence: ELEQEAKR, peptide start residue: 224)	-0.4
UniProt E9Q5K9 (peptide sequence: KLNLAFR, peptide start residue: 387)	0.369
UniProt O35464 (peptide sequence: DVAVVQRK, peptide start residue: 680)	-0.0317
UniProt G5E8K5 (peptide sequence: CFCMTDDRVDK, peptide start residue: 1331)	-0.366
UniProt E9Q7F2 (peptide sequence: TCISTVMK, peptide start residue: 549)	0.542
UniProt D3YZU1 (peptide sequence: LYSAVPGR, peptide start residue: 466)	0.226
UniProt E9Q557 (peptide sequence: ENLSWQKLESEK, peptide start residue: 1163)	0.758
UniProt O35453 (peptide sequence: AKEDEEPGAHR, peptide start residue: 2)	-0.26
UniProt O08796 (peptide sequence: FCEKDEEWDR, peptide start residue: 538)	-0.903
UniProt E9Q634 (peptide sequence: NQFVPPPHAFGNQR, peptide start residue: 968)	-0.342
UniProt E9Q8I9 (peptide sequence: VALESLYR, peptide start residue: 402)	0.138

Target	log2 fold change
UniProt E9PVB5 (peptide sequence: IHIEENEDRDTGLEQR, peptide start residue: 91)	-0.106
UniProt O35218 (peptide sequence: FLIDNPTEK, peptide start residue: 367)	-0.403
UniProt O35134 (peptide sequence: GGTGLFELK, peptide start residue: 1705)	0.459
UniProt O08573 (peptide sequence: FFVQYQHR, peptide start residue: 117)	0.506
UniProt E9Q4F7 (peptide sequence: SFTYEYEDSKQK, peptide start residue: 660)	0.499
UniProt E9Q3M5 (peptide sequence: WIKFEEK, peptide start residue: 131)	-0.0424
UniProt B9EKI3 (peptide sequence: QVLDGKEEVEK, peptide start residue: 607)	0.691
UniProt E9Q4Z2 (peptide sequence: QTTSDSAIPIR, peptide start residue: 1628)	-0.399
UniProt E9Q7D5 (peptide sequence: STESLPLTSR, peptide start residue: 891)	0.137
UniProt O35185 (peptide sequence: LTTLGHLEK, peptide start residue: 85)	0.482
UniProt E9PY46 (peptide sequence: VCLGNMGHAR, peptide start residue: 823)	0.732
UniProt O35216 (peptide sequence: QSSSVGSQTLR, peptide start residue: 24)	-0.0774
UniProt E9Q6D6 (peptide sequence: SVLLNHMAR, peptide start residue: 314)	0.232
UniProt E9Q7M2 (peptide sequence: LDHGSGEPYRR, peptide start residue: 155)	0.655
UniProt O08997 (peptide sequence: VCIDSEHSSDTLLATLNKTGK, peptide start residue: 40)	0.0924

Reformatted: results already given
Target | log2 fold change
UniProt O08573 (peptide sequence: FFVQYQHR, peptide start residue: 117) | 0.506
UniProt E9Q4F7 (peptide sequence: SFTYEYEDSKQK, peptide start residue: 660) | 0.499
